# In PubChem BioAssay AID720504 (National Center for Advancing Translational Sciences (NCATS), 2013):
# By UniProt entry, the sequences of proteins in these tests, tags left out.
# UniProt P53350, whole entry, looked up: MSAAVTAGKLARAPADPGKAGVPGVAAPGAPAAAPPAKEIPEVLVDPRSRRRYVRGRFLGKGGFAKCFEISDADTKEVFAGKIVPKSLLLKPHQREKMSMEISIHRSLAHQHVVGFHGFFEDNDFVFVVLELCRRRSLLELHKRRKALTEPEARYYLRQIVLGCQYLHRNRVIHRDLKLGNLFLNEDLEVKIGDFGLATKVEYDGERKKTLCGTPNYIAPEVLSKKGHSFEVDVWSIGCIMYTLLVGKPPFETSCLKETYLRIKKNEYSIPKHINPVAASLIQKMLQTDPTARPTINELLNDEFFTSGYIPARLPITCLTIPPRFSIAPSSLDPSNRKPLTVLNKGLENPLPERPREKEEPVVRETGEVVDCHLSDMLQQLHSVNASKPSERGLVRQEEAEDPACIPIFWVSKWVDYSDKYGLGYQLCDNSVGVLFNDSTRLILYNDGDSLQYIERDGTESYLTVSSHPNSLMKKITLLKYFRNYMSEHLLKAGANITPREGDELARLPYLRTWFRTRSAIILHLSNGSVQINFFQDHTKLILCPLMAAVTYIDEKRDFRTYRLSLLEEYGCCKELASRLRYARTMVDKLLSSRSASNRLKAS
# Screen size: about 360,000 compounds; about 10,000 (2.8%) were called active. The inconclusive results got no clear call from the source; some entries with a clear call stand among them for comparison. The call rests on the fitted dose curve; in most records, active means well fitted inhibition curve with a large enough effect; inconclusive means small, poorly fitted or top-dose-only effect; inactive means flat fitted curve, though single readings scatter. Potencies of inconclusive entries are doubtful fits and often do not repeat.
# Target: Serine/threonine-protein kinase PLK1 (Homo sapiens) (UniProt P53350)
# Experiment: qHTS for Inhibitors of PLK1-PDB (polo-like kinase 1 - polo-box domain): Primary Screen; further: nearly all actives have a fitted effect of over 65% in size; on max response, negative = inhibition: series mostly up to about 57 µM
# Details: Plk1 PBD binding of FITC phosphopeptide, fluorescence polarization
# Source text: The polo-like kinase 1 (Plk1) is a member of a conserved subfamily of serine / threonine protein kinases that plays a pivotal roles in cell proliferation. It has a C-terminal non-catalytic region called the polo-box domain (PBD) that plays a crucial role in the subcellular localization of the Plk1. […] Furthermore, depletion of the overexpressed Plk1 by RNAi efficiently induces apoptotic cell death in cancer and reduces tumor growth in mouse xenograft models. Thus, targeting Plk1 is an appealing strategy for anti-cancer therapy. Therefore, this project aimed to screen the Molecular Libraries Small Molecule Repository (MLSMR) using a novel approach to find inhibitors that target the Plk1 PBD instead of the conventional N-terminal catalytic domain. This project employed a fluorescence polarization (FP) assay using a FITC-conjugated phospho-9-mer (p-9-mer) peptide and purified human Plk1 PBD protein. The identified small molecule inhibitors of Plk1 PBD can then further be developed into useful tools for biomedical and clinical research that complements or replaces current relevant disease therapy. NIH Chemical Genomics Center [NCGC] NIH Molecular Libraries Probe Centers Network [MLPCN] MLPCN Grant: MH100728 Assay Submitter (PI): Kyung Lee, NCI
# Four microliter of 25 nM FITC-p-9-mer + 60 nM Plk1 PBD in buffer solution (final concentrations 25 nM and 60 nM respectively) or 4 uL of 25 nM FITC-p-9-mer (final concentration 25 nM) in buffer will be dispensed into a 1,536 Greiner medium-binding black solid plate. Small molecules at final concentrations of 18 nM to 57 uM and positive control phospho-9-mer (sequence: Ac-PPLHSpTAI-NH2) at final concentrations 26 nM to 57 uM and phospho-13-mer (sequence: Ac-[…]pTAI-NH2) at final concentrations of 1 nM to 2.3 uM will be pin-transferred (23 nL) to the plate via a Kalypsys pin-tool robotics equipped with a 1,536-pin array. The reaction plate will be centrifuged for 1 min at 1000 rpm and incubated at room temperature for 10 min. The FITC fluorescence signals will be read using the PerkinElmer ViewLux plate reader at 480 / 20 nm excitation and 540 / 20 nm S and P polarization emission wavelengths. Reagent bottles will be kept submerged into 4 °C recirculating chiller bath and all liquid lines will be covered with aluminum foil to minimize degradation. Library plates will be screened starting from the lowest to the highest concentrations to minimize compound carryover. Vehicle only plates, with DMSO being pin-transferred instead of compound solutions, will be included regularly throughout the screen to record any systematic shifts in assay signal.
# On the % scale 0 is the no-effect control and ±100 the full control effect; potency means the concentration at half of the fitted maximal effect.
SMILES,Potency,"max response, negative = inhibition"
CC(C)OC(=O)c1c(NC(=O)c2ccco2)sc2c1CCCCC2,"inconclusive: 26.7 µM [inhibitor, partial curve]",–
CCOC(=O)c1c(C)nc(C)c(C(=O)OCC)c1-c1ccc(O)c(OC)c1,active: 6.7 µM,–
COC(=O)C1=NNCC12CC(=O)N(c1ccc(Br)cc1)C2=O (configuration not stated),–,inconclusive: -35.7% [inhibitor]
CSc1nccc(NC(=O)c2ccc(C(C)(C)C)cc2)n1,–,inactive: -8.27%
COc1ccc(C=C(C#N)C(=O)c2ccccc2)cc1,active: 6.7 µM,–
O=C(Nc1cccnc1)c1ccccc1F,"inconclusive: 26.7 µM [inhibitor, single point]",–
Cc1oc(CN2CCOCC2)cc1C(=O)O,"inconclusive: 23.8 µM [inhibitor, partial curve]",–
CN(C)c1nc(=Nc2cccc(Cl)c2)ss1,active: 6.7 µM,–
Cc1ccc2nc(-c3cccc(S(=O)(=O)N4CC(C)OC(C)C4)c3)cn2c1 (configuration not stated),active: 18.9 µM,–
CC1(C)CC2CC(C)(CN2Cc2c(O)ccc3ccccc23)C1 (configuration not stated),"inconclusive: 21.2 µM [inhibitor, partial curve]",–
COC(=O)/C(=N/Nc1ccccc1Cl)Sc1nnc(C(O)c2ccccc2)n1-c1ccccc1 (configuration not stated),–,inactive: -8.67%
COc1ccc(NC(=O)C2CCN(C(=O)c3cccs3)CC2)cc1,"inconclusive: 29.9 µM [inhibitor, partial curve]",–
Cc1ccc(SC(C)C(=O)NCc2ccncc2)cc1 (configuration not stated),"inconclusive: 21.2 µM [inhibitor, partial curve]",–
COc1cccc(N2CCN(C(=O)CSc3ccc(F)cc3)CC2)c1,"inconclusive: 29.9 µM [inhibitor, partial curve]",–
Cc1ccc(OCC(=O)Nc2ccc(C)c(S(=O)(=O)N3CCCCC3)c2)c([N+](=O)[O-])n1,–,inactive: -2.59%
CCOC(=O)C1=C(CS(=O)(=O)c2ccc(C)cc2)NC(=O)NC1c1ccc(O)c(OC)c1 (configuration not stated),"inconclusive: 5.32 µM [inhibitor, single point]",–
O=C(C1CC1)N1CCc2[nH]c3ccccc3c2C1,–,inconclusive: -33.1% [inhibitor]
CC1=Nc2ccccc2/C1=C\c1sc(Nc2ccc(C)cc2)nc1O,–,inactive: 6.34%
Oc1ccc2[nH]cnc2c1CN1CCCCC1,–,inactive: 1.98%

SMILES,Potency,"max response, negative = inhibition"
O=C(N/N=C/c1ccco1)c1ccc(NC(=O)c2ccccc2Cl)cc1,–,inactive: -8.33%
O=C(O)c1ccc2c(=O)n3c(nc2c1)/C(=C/c1ccc(OC(F)F)cc1OC(F)F)CC3,active: 10.6 µM,–
COc1ccc(CCNC(=O)c2cc(S(=O)(=O)N(C)c3ccccc3)ccc2Cl)cc1,active: 15 µM,–
Cc1ccc(C)c(/C(O)=C2/C(=O)C(=O)N(CCN3CCOCC3)C2c2ccco2)c1 (configuration not stated),"inconclusive: 37.7 µM [inhibitor, single point]",–
Cc1cccc(/C=N/NC(=O)c2ccc(F)cc2)n1,–,inactive: -9.71%
Cc1ccc(C(=O)OCCc2c(C)[nH]n(-c3ccccc3)c2=O)cc1,"inconclusive: 37.7 µM [inhibitor, single point]",–
CC(=O)Nc1cc2nc(C)n(Cc3ccc([N+](=O)[O-])cc3)c2nc1C,–,inactive: -12.7%
COc1cccc(OC)c1NC(=O)CN(C)S(=O)(=O)c1ccc2c(c1)OCCO2,–,inactive: -2.7%
CCS(=O)(=O)C1=NN2C(=N)/C(=C\c3ccc(OCCOc4cccc(OC)c4)c(OC)c3)C(=O)N=C2S1,active: 23.8 µM,–
Cc1cccc(C)c1OCc1cn(CC(=O)c2ccc(O)cc2)nn1,–,inactive: -19.7%
CSc1ncc(OCc2ccccc2)c(=O)[nH]1,–,inactive: -12%
C#CCN(C[C@@H]1[C@@H](OC(=O)NCc2ccco2)[C@@H](OC(=O)NCc2ccco2)Cn2c(=O)n(CCCCCC)c(=O)n21)S(=O)(=O)c1ccc(C)cc1,"inconclusive: 23.8 µM [inhibitor, partial curve]",–
Cc1ccc(/C=C2\SC(=S)N(CCCC(=O)Nc3cccc(C(=O)O)c3)C2=O)cc1,"inconclusive: 26.7 µM [inhibitor, partial curve]",–
Cn1nc(C(C)(C)C)cc1C(=O)Sc1cccc(Br)c1,"inconclusive: 13.4 µM [inhibitor, partial curve]",–
CC(=O)c1cccc(NS(=O)(=O)c2ccc(N/C=C\C(=O)c3ccc(C)cc3)cc2)c1,–,inactive: -27.6%
O=C(COC(=O)c1ccc(F)cc1F)c1ccc[nH]1,–,inactive: -1.03%
CCOC(=O)CSc1c(-c2ccc(Cl)cc2)[nH]c2ccccc12,active: 5.97 µM,–
Cc1noc(C)c1CSCC(=O)Nc1nc2c(F)cc(F)cc2s1,"inconclusive: 16.8 µM [inhibitor, partial curve]",–

# An excerpt of these results, with bars between the fields:
SMILES | Potency | max response, negative = inhibition
COc1ccc(CCNC(=O)c2cc(S(=O)(=O)N(C)c3ccccc3)ccc2Cl)cc1 | active: 15 µM | –
Cc1ccc(C)c(/C(O)=C2/C(=O)C(=O)N(CCN3CCOCC3)C2c2ccco2)c1 (configuration not stated) | inconclusive: 37.7 µM [inhibitor, single point] | –
